From the supplement of paper PMC12024529
Structures can show the parent of a compound that is named as a salt. The list shows a part of the results. Part of the spread comes from offsets between plates or batches.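 Wild-type or misfolding-prone missense mutant B-domain-deleted factor VIII, fused to Gaussia luciferase, is stably expressed in HEK293 lines. Each score is (mean triplicate-well luminescence minus DMSO mean) divided by DMSO standard deviation. Hits score at least 2; lower scores could stem from decreased secretion or poorer cell viability.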

Key:
HEK293 WT BDD-FVIII-Gluc = assay: secreted FVIII-Gluc luciferase Z-score vs DMSO control; higher = more FVIII-Gluc secretion; conditions: 5 µM; 24 h
[1] = tested on: HEK293 p.N1941S BDD-FVIII-Gluc; assay: as above; conditions: 5 µM; 24 h

Compound: O=S(=O)(O)c1cc(O)ccc1O [Ethamsylate]
- secreted FVIII-Gluc luciferase Z-score (HEK293 WT BDD-FVIII-Gluc): inactive: 1.66
- secreted FVIII-Gluc luciferase Z-score [1]: inactive: -0.0769

Compound: C[C@H](CS)C(=O)N1CCC[C@H]1C(=O)O [Captopril (Capoten)]
- secreted FVIII-Gluc luciferase Z-score (HEK293 WT BDD-FVIII-Gluc): inactive: 0.311
- secreted FVIII-Gluc luciferase Z-score [1]: inactive: -0.217

Compound: Cc1ccnc2c1NC(=O)c1cccnc1N2C1CC1 [Nevirapine (Viramune)]
- secreted FVIII-Gluc luciferase Z-score (HEK293 WT BDD-FVIII-Gluc): inactive: -0.466
- secreted FVIII-Gluc luciferase Z-score [1]: inactive: -0.928

Compound: O=c1c(-c2ccc(O)cc2)coc2cc(O)cc(O)c12 [Genistein]
- secreted FVIII-Gluc luciferase Z-score (HEK293 WT BDD-FVIII-Gluc): inactive: -3.43
- secreted FVIII-Gluc luciferase Z-score [1]: inactive: 1.46

Compound: CNC(=O)c1ccc(N2C(=S)N(c3ccc(C#N)c(C(F)(F)F)c3)C(=O)C2(C)C)cc1F [MDV3100 (Enzalutamide)]
- secreted FVIII-Gluc luciferase Z-score (HEK293 WT BDD-FVIII-Gluc): inactive: 1.42
- secreted FVIII-Gluc luciferase Z-score [1]: inactive: -0.411

Compound: COc1ccc2c(c1)c(CC(=O)O)c(C)n2C(=O)c1ccc(Cl)cc1 [Indomethacin (Indocid, Indocin)]
- secreted FVIII-Gluc luciferase Z-score (HEK293 WT BDD-FVIII-Gluc): inactive: 1.86
- secreted FVIII-Gluc luciferase Z-score [1]: inactive: -2.13

Compound: CCOC(=O)C(CCc1ccccc1)NC(C)C(=O)N1C(=O)N(C)CC1C(=O)O (stereo not given) [Imidapril (Tanatril) HCl]
- secreted FVIII-Gluc luciferase Z-score (HEK293 WT BDD-FVIII-Gluc): inactive: 0.376
- secreted FVIII-Gluc luciferase Z-score [1]: inactive: -0.625

Compound: COC(=O)Nc1nc2cc(Sc3ccccc3)ccc2[nH]1 [Fenbendazole]
- secreted FVIII-Gluc luciferase Z-score (HEK293 WT BDD-FVIII-Gluc): inactive: -4.34
- secreted FVIII-Gluc luciferase Z-score [1]: inactive: -7.17

Compound: CC[C@@]1(O)C(=O)OCc2c1cc1n(c2=O)Cc2cc3c(CN(C)C)c(O)ccc3nc2-1 [Topotecan HCl]
- secreted FVIII-Gluc luciferase Z-score (HEK293 WT BDD-FVIII-Gluc): inactive: -3.07
- secreted FVIII-Gluc luciferase Z-score [1]: inactive: -13

Compound: Clc1cccc(Cl)c1NC1=NCCN1 [Clonidine hydrochloride (Catapres)]
- secreted FVIII-Gluc luciferase Z-score (HEK293 WT BDD-FVIII-Gluc): inactive: -1.8
- secreted FVIII-Gluc luciferase Z-score [1]: inactive: -1.07

Compound: C=C1/C(=C\C=C2/CCC[C@]3(C)[C@@H]([C@H](C)CCCC(C)C)CC[C@@H]23)C[C@@H](O)C[C@@H]1O [Alfacalcidol]
- secreted FVIII-Gluc luciferase Z-score (HEK293 WT BDD-FVIII-Gluc): inactive: -2.46
- secreted FVIII-Gluc luciferase Z-score [1]: inactive: -0.147

Compound: COc1ccccc1OCC(O)COC(N)=O (stereo not given) [Methocarbamol (Robaxin)]
- secreted FVIII-Gluc luciferase Z-score (HEK293 WT BDD-FVIII-Gluc): inactive: -0.309
- secreted FVIII-Gluc luciferase Z-score [1]: inactive: 0.528

Compound: CC1=CC(=O)c2ccccc2C1=O [Menadione]
- secreted FVIII-Gluc luciferase Z-score (HEK293 WT BDD-FVIII-Gluc): inactive: -2.69
- secreted FVIII-Gluc luciferase Z-score [1]: inactive: -0.884

Compound: NC12CC3CC(CC(C3)C1)C2 [Amantadine hydrochloride (Symmetrel)]
- secreted FVIII-Gluc luciferase Z-score (HEK293 WT BDD-FVIII-Gluc): inactive: -0.19
- secreted FVIII-Gluc luciferase Z-score [1]: inactive: 0.502

Compound: COc1ccc2[nH]c([S@@+]([O-])Cc3ncc(C)c(OC)c3C)nc2c1 [Esomeprazole sodium (Nexium)]
- secreted FVIII-Gluc luciferase Z-score (HEK293 WT BDD-FVIII-Gluc): inactive: 0.355
- secreted FVIII-Gluc luciferase Z-score [1]: inactive: -0.521

Compound: CCCc1nc(C(C)(C)O)c(C(=O)OCc2oc(=O)oc2C)n1Cc1ccc(-c2ccccc2-c2nnn[nH]2)cc1 [Olmesartan medoxomil (Benicar)]
- secreted FVIII-Gluc luciferase Z-score (HEK293 WT BDD-FVIII-Gluc): inactive: -0.173
- secreted FVIII-Gluc luciferase Z-score [1]: inactive: -2.68

Compound: C=C[C@H]1CN2CC[C@H]1C[C@H]2[C@H](O)c1ccnc2ccc(OC)cc12 [Quinine hydrochloride dihydrate]
- secreted FVIII-Gluc luciferase Z-score (HEK293 WT BDD-FVIII-Gluc): inactive: -0.25
- secreted FVIII-Gluc luciferase Z-score [1]: inactive: 0.367

Compound: NC(=O)Cc1cccc(C(=O)c2ccccc2)c1N [Nepafenac]
- secreted FVIII-Gluc luciferase Z-score (HEK293 WT BDD-FVIII-Gluc): inactive: 0.00292
- secreted FVIII-Gluc luciferase Z-score [1]: inactive: -2.15

Compound: CN(C)CCC(c1ccccc1)c1ccccn1 (stereo not given) [Pheniramine Maleate]
- secreted FVIII-Gluc luciferase Z-score (HEK293 WT BDD-FVIII-Gluc): inactive: 0.0201
- secreted FVIII-Gluc luciferase Z-score [1]: inactive: 0.14

Compound: CCC(=O)O[C@]1(C(=O)CCl)[C@@H](C)C[C@H]2[C@@H]3C[C@H](F)C4=CC(=O)C=C[C@]4(C)[C@@]3(F)[C@@H](O)C[C@@]21C [Halobetasol Propionate]
- secreted FVIII-Gluc luciferase Z-score (HEK293 WT BDD-FVIII-Gluc): active: 6.37
- secreted FVIII-Gluc luciferase Z-score [1]: active: 3.27

Compound: Cc1nnc(C(C)C)n1C1C[C@H]2CC[C@@H](C1)N2CC[C@H](NC(=O)C1CCC(F)(F)CC1)c1ccccc1 (stereo in doubt) [Maraviroc]
- secreted FVIII-Gluc luciferase Z-score (HEK293 WT BDD-FVIII-Gluc): inactive: -1.84
- secreted FVIII-Gluc luciferase Z-score [1]: inactive: 1.95

Compound: CCOc1nc2cccc(C(=O)OCc3oc(=O)oc3C)c2n1Cc1ccc(-c2ccccc2-c2noc(=O)[nH]2)cc1 [Azilsartan Medoxomil (TAK-491)]
- secreted FVIII-Gluc luciferase Z-score (HEK293 WT BDD-FVIII-Gluc): inactive: -1.54
- secreted FVIII-Gluc luciferase Z-score [1]: inactive: -0.632

Compound: OC(CCN1CCCC1)(c1ccccc1)C1CCCCC1 (stereo not given) [Procyclidine HCl]
- secreted FVIII-Gluc luciferase Z-score (HEK293 WT BDD-FVIII-Gluc): inactive: -1.78
- secreted FVIII-Gluc luciferase Z-score [1]: inactive: -1.64

Compound: CCOC(=O)n1ccn(C)c1=S [Carbimazole]
- secreted FVIII-Gluc luciferase Z-score (HEK293 WT BDD-FVIII-Gluc): inactive: -0.472
- secreted FVIII-Gluc luciferase Z-score [1]: inactive: -0.111

Compound: O=C1CCc2cc(OCCCCc3nnnn3C3CCCCC3)ccc2N1 [Cilostazol]
- secreted FVIII-Gluc luciferase Z-score (HEK293 WT BDD-FVIII-Gluc): inactive: -3.41
- secreted FVIII-Gluc luciferase Z-score [1]: inactive: -0.691
